# In publication doi:10.1101/2025.01.09.632087:
# Chains of the proteins cited; added tags and fusions are not shown. Residues count along the entry.
# UniProt P11021, residues 19-654: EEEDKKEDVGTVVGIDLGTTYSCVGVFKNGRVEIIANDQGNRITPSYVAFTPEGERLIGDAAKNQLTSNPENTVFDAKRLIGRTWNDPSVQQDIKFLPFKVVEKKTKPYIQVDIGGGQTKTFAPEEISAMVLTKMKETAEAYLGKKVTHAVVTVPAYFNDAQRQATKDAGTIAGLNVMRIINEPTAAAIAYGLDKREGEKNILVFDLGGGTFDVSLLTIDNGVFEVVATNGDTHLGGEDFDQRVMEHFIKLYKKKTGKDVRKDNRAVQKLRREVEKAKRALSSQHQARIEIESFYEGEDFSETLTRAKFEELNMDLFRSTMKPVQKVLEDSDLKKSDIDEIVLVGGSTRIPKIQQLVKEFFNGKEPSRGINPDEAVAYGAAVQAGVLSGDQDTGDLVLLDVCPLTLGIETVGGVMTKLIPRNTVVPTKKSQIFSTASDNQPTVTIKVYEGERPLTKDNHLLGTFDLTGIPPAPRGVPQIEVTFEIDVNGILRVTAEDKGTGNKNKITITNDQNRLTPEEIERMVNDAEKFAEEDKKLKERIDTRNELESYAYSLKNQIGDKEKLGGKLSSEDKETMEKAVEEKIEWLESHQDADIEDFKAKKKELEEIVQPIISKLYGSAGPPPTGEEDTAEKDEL
# T1: full-length PLD3 with a C-terminal 3xFLAG-tag (PLD3-FLAG) (human) (UniProt Q8IV08)
# T1 sequence: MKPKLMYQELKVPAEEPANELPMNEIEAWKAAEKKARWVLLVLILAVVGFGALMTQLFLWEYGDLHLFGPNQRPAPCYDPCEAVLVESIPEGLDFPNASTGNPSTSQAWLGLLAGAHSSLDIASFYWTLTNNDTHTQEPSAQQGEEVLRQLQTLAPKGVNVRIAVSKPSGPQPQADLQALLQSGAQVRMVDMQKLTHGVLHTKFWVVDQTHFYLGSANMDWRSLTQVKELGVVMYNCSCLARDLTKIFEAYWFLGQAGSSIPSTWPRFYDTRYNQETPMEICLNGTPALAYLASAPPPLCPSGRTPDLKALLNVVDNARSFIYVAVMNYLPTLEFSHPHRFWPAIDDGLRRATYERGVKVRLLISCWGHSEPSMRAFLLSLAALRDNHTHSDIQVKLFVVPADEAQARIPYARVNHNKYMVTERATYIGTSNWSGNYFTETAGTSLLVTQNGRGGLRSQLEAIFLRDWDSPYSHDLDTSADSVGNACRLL
# T2: wt FICD with a C-terminal FLAG(3x)-tag (FICD-FLAG) (human) (UniProt Q9BVA6)
# T2 sequence: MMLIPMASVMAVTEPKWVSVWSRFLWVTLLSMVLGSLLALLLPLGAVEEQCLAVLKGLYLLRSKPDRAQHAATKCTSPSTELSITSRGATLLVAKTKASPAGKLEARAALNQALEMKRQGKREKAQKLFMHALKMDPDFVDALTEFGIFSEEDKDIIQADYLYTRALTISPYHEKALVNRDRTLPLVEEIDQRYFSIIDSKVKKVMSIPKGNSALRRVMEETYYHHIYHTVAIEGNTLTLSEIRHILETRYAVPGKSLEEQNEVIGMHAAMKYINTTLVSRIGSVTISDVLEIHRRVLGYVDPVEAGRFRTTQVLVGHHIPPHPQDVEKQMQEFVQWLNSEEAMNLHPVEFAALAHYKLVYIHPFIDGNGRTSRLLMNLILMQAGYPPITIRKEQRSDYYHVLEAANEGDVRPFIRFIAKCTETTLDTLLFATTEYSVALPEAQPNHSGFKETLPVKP
# Legend:
# [1] = molecular target: T1, full-length PLD3 with a C-terminal 3xFLAG-tag (PLD3-FLAG) (human); experiment: affinity purification with mass spectrometry
# [2] = molecular target: T2, wt FICD with a C-terminal FLAG(3x)-tag (FICD-FLAG) (human); experiment: affinity purification with mass spectrometry
Molecule,binding [1],binding [2]
heat shock protein family A member 5 (HSPA5) (from UniProt P11021 19-654),binds,binds
"wt FICD (protein adenylyltransferase FICD, without affinity tag) (enzyme, UniProt Q9BVA6 1-458) MMLIPMASVMAVTEPKWVSVWSRFLWVTLLSMVLGSLLALLLPLGAVEEQCLAVLKGLYLLRSKPDRAQHAATKCTSPSTELSITSRGATLLVAKTKASPAGKLEARAALNQALEMKRQGKREKAQKLFMHALKMDPDFVDALTEFGIFSEEDKDIIQADYLYTRALTISPYHEKALVNRDRTLPLVEEIDQRYFSIIDSKVKKVMSIPKGNSALRRVMEETYYHHIYHTVAIEGNTLTLSEIRHILETRYAVPGKSLEEQNEVIGMHAAMKYINTTLVSRIGSVTISDVLEIHRRVLGYVDPVEAGRFRTTQVLVGHHIPPHPQDVEKQMQEFVQWLNSEEAMNLHPVEFAALAHYKLVYIHPFIDGNGRTSRLLMNLILMQAGYPPITIRKEQRSDYYHVLEAANEGDVRPFIRFIAKCTETTLDTLLFATTEYSVALPEAQPNHSGFKETLPVKP",binds,
"wt PLD3 (without an affinity tag) (enzyme, UniProt Q8IV08 1-490) MKPKLMYQELKVPAEEPANELPMNEIEAWKAAEKKARWVLLVLILAVVGFGALMTQLFLWEYGDLHLFGPNQRPAPCYDPCEAVLVESIPEGLDFPNASTGNPSTSQAWLGLLAGAHSSLDIASFYWTLTNNDTHTQEPSAQQGEEVLRQLQTLAPKGVNVRIAVSKPSGPQPQADLQALLQSGAQVRMVDMQKLTHGVLHTKFWVVDQTHFYLGSANMDWRSLTQVKELGVVMYNCSCLARDLTKIFEAYWFLGQAGSSIPSTWPRFYDTRYNQETPMEICLNGTPALAYLASAPPPLCPSGRTPDLKALLNVVDNARSFIYVAVMNYLPTLEFSHPHRFWPAIDDGLRRATYERGVKVRLLISCWGHSEPSMRAFLLSLAALRDNHTHSDIQVKLFVVPADEAQARIPYARVNHNKYMVTERATYIGTSNWSGNYFTETAGTSLLVTQNGRGGLRSQLEAIFLRDWDSPYSHDLDTSADSVGNACRLL",,binds

# No constants are given. Whether binding was seen depends on the method and setting. Binding seen in cells or lysates may run through a third protein. These calls come from enrichment with a bait or labelling near it, and not all partners need be listed. Sequences can lack the tags named with a protein.
